Some compounds share one wording; it may come from a single statement.
Test system: G-quadruplex DNA
Assay: Fluorescence titration of TQs with G-quadruplex DNA (modified Scatchard)
Format: binding, human
Conditions: for number of binding sites N: modified Scatchard equation; for red shift in fluorescence titration: Tris-KCl buffer pH 7.4
Experimental: A 2 ml of the stock single stranded DNA; 5′-[…]-3′ (SEQ ID NO: 1) was gently heated up to 95° C., incubated for 10 minutes and then left to cool to room temperature. Resultant solution was kept in fridge at 4° C. overnight.
To 3 ml of 5×10^−5 M of each of compounds TQ1-8 in Tris-KCl-buffer, pH 7.4, successive portions of G-quadruplex DNA (1.44×10^−4 M) were added. After each addition, the TQ solution was stirred for 20 seconds, incubated for 3 min and its emission was scanned in the range 300-600 nm using excitation Amax of 280 nm and slit width of 10.00 nm. Titration stopped when no change in fluorescence intensity was observed.
Scatchard plots were used to determine the binding affinity of the thymoquinone derivative compounds to G-quadruplex based on fluorescence titration, keeping the compounds concentration constant and varying DNA amounts.
Dependant binding sites may have synergistic (the first bound ligand encourage the next binding one) or antagonistic (the first bound ligand suppress the next binding one) effects on each other, a phenomenon known as the neighbor exclusion effect. Non-linear regression based on a modified Scatchard equation gave the binding constants and number of binding sites shown in Table 3. Compound TQ8 has shown the highest binding constant (1.33×10^7 M^−1) and compound TQ5 has shown the lowest binding constant (7.76×10^4 M^−1)

[1] = titration with G-quadruplex DNA

| Compound | number of binding sites N | change in fluorescence intensity on titration [1] | red shift in fluorescence titration [1] [nm] | new peak appearing in fluorescence titration [1] [nm] | isosbestic point [1] [nm] |
| --- | --- | --- | --- | --- | --- |
| CC1=C(NCCN2CCOCC2)C(=O)C(C(C)C)=CC1=O [TQ1, 5-Isopropyl-2-methyl-3-((2-morpholinoethyl)amino)-1,4-benzoquinone] | 2 | decrease in fluorescence intensity | 24 | – | – |
| CC1=C(NCc2ccc(C(F)(F)F)cc2)C(=O)C(C(C)C)=CC1=O [TQ2, 5-Isopropyl-2-methyl-3-(4-trifluoromethylbenzylamino)-1,4-benzoquinone] | 1 | decrease in fluorescence intensity | 14 | – | – |
| CC1=C(NCc2ccc(F)cc2)C(=O)C(C(C)C)=CC1=O [TQ3, 5-Isopropyl-2-methyl-3-(4-fluorobenzylamino)-1,4-benzoquinone] | 3 | hypochromicity | 4 | 353.7 | – |
| CC1=C(NCc2ccccc2)C(=O)C(C(C)C)=CC1=O [TQ4, 5-Isopropyl-2-methyl-3-(benzylamino)-1,4-benzoquinone] | 3 | decrease in fluorescence intensity | 30 | – | – |
| CC1=C(NCc2cc(C(F)(F)F)cc(C(F)(F)F)c2)C(=O)C(C(C)C)=CC1=O [TQ5, 5-Isopropyl-2-methyl-3-(3,5-ditrifluoromethylbenzylamino)-1,4-benzoquinone] | 1 | decrease in fluorescence intensity | 25 | – | – |
| CC1=C(NCCO)C(=O)C(C(C)C)=CC1=O [TQ6, 5-isopropyl-2-methyl-3-(2-hydroxyethylamino)-1,4-benzoquinone] | 2 | hypochromicity | 4 | 350 | 315 |
| COc1ccc(CNC2=C(C)C(=O)C=C(C(C)C)C2=O)cc1OC [TQ7, 5-isopropyl-2-methyl-3-(3,4-dimethoxylbenzylamino)-1,4-benzoquinone] | 2 | decrease in fluorescence intensity | 41 | – | – |

From US10501428B2, “Thymoquinone derivatives for treatment of cancer” (United Arab Emirates University, priority 2014, dated 2019)
